In patent US12590118B2, “Salt and crystal form of steroid derivative regulator” (Shanghai Hansoh Biomedical Co., Ltd., priority 2019, dated 2026):
The name of at least one read-out is uncertain.

Tested on: ICR mice
Experiment: Forced swimming model in mice
Format: in vivo
Conditions: dose 10 mpk p.o., latter four minutes of 6 min swim
Procedure: The antidepressant effect of the compound was evaluated by the forced swimming model in mice.
Compounds of Examples 1 to 3, Example 9, Example 40, Example 41, Examples 48 to 52, Example 90 and Example 98 of the present invention, prepared by the applicant.
Male ICR mice (25-35 g) were adapted in the experiment environment for 3 days before the forced swimming test.
According to the experiment design, the mice were randomly grouped on the day before the experiment according to body weight, with 12 mice in each group. Before the test, the compounds of each example were administered intragastrically according to the Tmax thereof in the brain in mice pharmacokinetic experiment.
Respectively: • 1) Model group (0.5% CMC-Na-1% Tween 80 solution, p.o., 10 mL/kg); • 2) Compounds of Examples 1 to 3, Example 40, Example 41, Examples 48 to 51, Example 90 and Example 98 (10 mg/kg, p.o., 10 mL/kg); Example 9 and Example 52 (5 mg/kg, p.o., 5 mL/kg). […]
0.5-1 hour after administration, ICR mice were placed in a forced swimming device (transparent glass drum (water depth 18 cm, water temperature 25-26° C.), one mouse per tank) and forced to swim for 6 minutes. The forced swimming device recorded the floating time of the ICR mice during the entire 6 minutes, and the data of the latter four minutes were used for data analysis. […]

C[C@@]1(O)CC[C@H]2[C@H](CC[C@@H]3[C@@H]2CC[C@@]2(C)[C@H]3[C@@H]3C[C@@H]3[C@@H]2C(=O)Cn2ccc(C#N)n2)C1 [Example 2, 1-(2-((2R,4aS,4bR,6aS,7S,7aS,8aR,8bR,8cR,10aR)-2-Hydroxy-2,6a-dimethyloctadecahydrocyclopropa[4,5]cyclopenta[1,2-a]phenanthren-7-yl)-2-oxoethyl)-1H-pyrazole-3-carbonitrile]
Mean (immobility, s): 68.39 s
